The text below walks through data of PubChem BioAssay AID256 (DTP/NCI, 2004).

The list is a part of this screen's results and no random one: it is rich in T/C values a quarter to a half above the control, in often repeated tests (any T/C) and in doses without a T/C. Other doses and runs of a compound stand elsewhere. T/C is the treated group as % of the vehicle group. Some doses have a count of surviving animals in place of a T/C: the source files T/C as zero there, which appears to mark a toxic dose or a test without result, not a measured value. Some doses without a T/C left all or most animals alive at the check, yet need not have been tolerated: survival well below the control is almost never listed, so the zero probably covers shortened survival too. Counts of survivors are from the toxicity check (mostly the fifth day) where no day follows; animals may have died later. Schedule codes are those of the source, taken here to give the interval after Q, in days (D) or hours (H), and the number of doses after X. Counts like (3×) count equal records among those shown. Some doses were run more than once; their values stand side by side, smallest first. Where survival is the endpoint, this PubChem deposit counts one and a half times the control or more as active, and values a quarter to a half above the control carry no call in these data; other NCI protocols may use other cut-offs.

The test deals with CD2F1 mice, L1210 leukemia ip, survival T/C. As to the kind of experiment: NCI In Vivo Anticancer Drug Screen. Data for tumor model L1210 Leukemia (intraperitoneal) in CD2F1 (CDF1) mice. The note with it: higher T/C = longer survival. The gist of the method: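 Vehicle-treated tumor-bearing mice served as controls (C) for compound-treated mice (T). Reported figure is T divided by C.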

Where [1] appears, read: T/C endpoint: mean survival time, dose: 12.5 mg/kg/injection, schedule: Q01DX009 (ip), vehicle: saline with Tween-80.
[2] abbreviates: T/C endpoint: mean survival time, dose: 25.0 mg/kg/injection, schedule: Q01DX009 (ip), vehicle: saline with Tween-80.
[3] abbreviates: T/C endpoint: mean survival time, dose: 200.0 mg/kg/injection, schedule: Q01DX009 (ip), vehicle: saline with Tween-80.
The mark [4] stands for this setting: T/C endpoint: mean survival time, dose: 50.0 mg/kg/injection, schedule: Q01DX009 (ip), vehicle: saline with Tween-80.
The mark [5] stands for this setting: T/C endpoint: mean survival time, dose: 400.0 mg/kg/injection, schedule: Q01DX009 (ip), vehicle: saline with Tween-80.
Where [6] appears, read: T/C endpoint: mean survival time, dose: 400.0 mg/kg/injection, schedule: Q04DX002 (ip), vehicle: saline with Tween-80.
The mark [7] stands for this setting: T/C endpoint: mean survival time, dose: 400.0 mg/kg/injection, schedule: Q04DX003 (ip), vehicle: saline with Tween-80.
The mark [8] stands for this setting: T/C endpoint: mean survival time, dose: 100.0 mg/kg/injection, schedule: Q01DX001 (ip), vehicle: Klucel (hydroxypropylcellulose) (HPC).
Where [9] appears, read: T/C endpoint: mean survival time, dose: 400.0 mg/kg/injection, schedule: Q01DX001 (ip), vehicle: Klucel (hydroxypropylcellulose) (HPC).

Consider `O=C(O)c1ccccc1N(CCO)CCCl`, for which the T/C (T/C endpoint: mean survival time, dose: 6.25 mg/kg/injection, schedule: Q01DX009 (ip), vehicle: saline with Tween-80) is 138 % of control; the T/C under setting [1] is 132 and 138 % of control. In addition, the survivor count was 3 of 6 (T/C endpoint: mean survival time, dose: 20.0 mg/kg/injection, schedule: Q01DX009 (ip), vehicle: Klucel (hydroxypropylcellulose) (HPC)); 0 of 6 and 1 of 6 under setting [2]; 0 of 6 (T/C endpoint: mean survival time, dose: 40.0 mg/kg/injection, schedule: Q01DX009 (ip), vehicle: Klucel (hydroxypropylcellulose) (HPC)).
In the case of `Brc1ccc([I+]c2ccc(Br)cc2)cc1`, the survivor count (T/C endpoint: mean survival time, dose: 100.0 mg/kg/injection, schedule: Q04DX003 (ip), vehicle: saline with Tween-80) is on record as 3 of 6 and the survivor count (T/C endpoint: mean survival time, dose: 200.0 mg/kg/injection, schedule: Q04DX003 (ip), vehicle: saline with Tween-80) was 3 of 6.
`CCCCC(CCC)(CCN)CCCC`: the survivor count is 0 of 6 (T/C endpoint: mean survival time, dose: 25.0 mg/kg/injection, schedule: Q04DX003 (ip), vehicle: saline) and 0 of 6 (T/C endpoint: mean survival time, dose: 50.0 mg/kg/injection, schedule: Q04DX003 (ip), vehicle: saline).
As to `Cc1ccc2cc(O)ccc2c1`, the survivor count under setting [3] is reported as 3 of 6.
With `CC[As](=O)(O)c1ccc([N+](=O)[O-])cc1`, the survivor count (T/C endpoint: mean survival time, dose: 100.0 mg/kg/injection, schedule: Q01DX001 (ip), vehicle: saline with Tween-80) is given as 3 of 6.
Regarding `O=N[O-].[Co].[N-]=C=S.[NH2-].[NH2-].[NH2-].[NH2-]`, under setting [4], the T/C is 125 % of control.
For `Cc1cccc(Cl)c1NC(=O)Nc1cc(Cl)ccc1Oc1c(Cl)cc(Cl)cc1S(=O)(=O)O`, under setting [5], the survivor count is 0 of 6.
`CCC(=C\c1sc2ccc3ccccc3c2[n+]1CC)/C=C1/Sc2ccc3ccccc3c2N1CC`: the survivor count is 0 of 6 (T/C endpoint: mean survival time, dose: 75.0 mg/kg/injection, schedule: Q01DX001 (ip), vehicle: other); 0 of 6 (T/C endpoint: mean survival time, dose: 150.0 mg/kg/injection, schedule: Q01DX001 (ip), vehicle: other); 0 of 6 (T/C endpoint: mean survival time, dose: 300.0 mg/kg/injection, schedule: Q01DX001 (ip), vehicle: other).
With `[Cl][Pt][Cl].[NH-]C(CO)C(=O)O` (centres undefined), the survivor count by setting is: (T/C endpoint: mean survival time, dose: 200.0 mg/kg/injection, schedule: Q04DX003 (ip), vehicle: water) 0 of 6; (T/C endpoint: median survival time, dose: 50.0 mg/kg/injection, schedule: Q01DX009 (ip), vehicle: water) 3 of 6; (T/C endpoint: median survival time, dose: 100.0 mg/kg/injection, schedule: Q01DX009 (ip), vehicle: water) 0 of 6.
In the case of `[Cl][Pt+2][Cl].[NH-]c1ccc(F)c(Cl)c1.[NH-]c1ccc(F)c(Cl)c1`, the survivor count is reported as 3 of 6 (T/C endpoint: mean survival time, dose: 100.0 mg/kg/injection, schedule: Q04DX003 (ip), vehicle: distilled water + Tween-80) and 0 of 6 (T/C endpoint: mean survival time, dose: 200.0 mg/kg/injection, schedule: Q04DX003 (ip), vehicle: distilled water + Tween-80).
As for `O=C(Nc1ccc(C2=NCCN2)cc1)c1ccc(NC(=O)c2ccc(C3=NCCN3)cc2)cc1`, the T/C was 133 % of control (T/C endpoint: median survival time, dose: 15.0 mg/kg/injection, schedule: Q01DX009 (ip), vehicle: saline) and 138 % of control (T/C endpoint: median survival time, dose: 120.0 mg/kg/injection, schedule: Q01DX009 (ip), vehicle: saline).
On to `Cc1cc(NS(=O)(=O)c2ccc(N=Nc3cc(N=Nc4ccc(S(=O)(=O)Nc5cc(C)nc(C)n5)cc4)c4c(NC(=O)C(Cl)Cl)cccc4c3OC(=O)C(Cl)Cl)cc2)nc(C)n1` (tested in a mixture with another compound), for which, under “T/C endpoint: median survival time, dose: 400.0 mg/kg/injection, schedule: Q01DX009 (ip), vehicle: suspension in saline”, the survivor count was 5 of 6.
In the case of `Cc1cn(C2CC(O)C(CO)O2)c(=O)nc1NCC12CC3CC(CC(C3)C1)C2` (centres undefined), the survivor count (T/C endpoint: median survival time, dose: 200.0 mg/kg/injection, schedule: Q01DX005 (ip), vehicle: distilled water + Tween-80) is 6 of 6.
Take `O=C(Nc1ccc(C2=NCCCN2)cc1)c1ccc(C(=O)Nc2ccc(C3=NCCCN3)cc2)cc1`: the T/C (T/C endpoint: mean survival time, dose: 2.0 mg/kg/injection, schedule: Q01DX008 (iv), vehicle: water) is 135 % of control. Further, the survivor count (T/C endpoint: mean survival time, dose: 4.0 mg/kg/injection, schedule: Q01DX008 (iv), vehicle: water) is 2 of 7 and the survivor count (T/C endpoint: mean survival time, dose: 8.0 mg/kg/injection, schedule: Q01DX008 (iv), vehicle: water) was 0 of 7.
`O=c1[nH]c(NCCCCc2ccccc2)c(Br)c(=O)[nH]1`: the survivor count (T/C endpoint: mean survival time, dose: 200.0 mg/kg/injection, schedule: Q01DX001 (ip), vehicle: saline with Tween-80) is reported as 1 of 6 and the survivor count (T/C endpoint: mean survival time, dose: 400.0 mg/kg/injection, schedule: Q01DX001 (ip), vehicle: saline with Tween-80) is recorded as 0 of 6.
On to `COC1(OC)C(Cl)=C(Cl)C(Cl)=C1Cl`, for which the survivor count (T/C endpoint: mean survival time, dose: 50.0 mg/kg/injection, schedule: Q04DX003 (ip), vehicle: saline with Tween-80) was 2 of 6.
For `Cc1c2oc3c(C)ccc(C(=O)NC4C(=O)NC(C(C)C)C(=O)N5CCCC5C(=O)N(C)CC(=O)N(C)C(C(C)C)C(=O)OC4C)c3nc-2c(C(=O)NC2C(=O)NC(C(C)C)C(=O)N3CCC3C(=O)N(C)CC(=O)N(C)C(C(C)C)C(=O)OC2C)c(N)c1=O` (centres undefined), the T/C (T/C endpoint: mean survival time, dose: 150.0 micrograms/kg/injection, schedule: Q01DX009 (ip), vehicle: saline + alcohol) was 126 % of control. Moreover, where the note is “T/C endpoint: mean survival time, dose: 1200.0 micrograms/kg/injection, schedule: Q01DX009 (ip), vehicle: saline + alcohol”, the survivor count is listed as 6 of 6.
In the case of `O=C(OC1(c2ccccc2)C2C=CC1CC2)c1ccc([N+](=O)[O-])cc1` (centres undefined), under setting [6], the survivor count was 3 of 3.
Turning to `CCCCCCCCCCCCCCCC(=O)N(CCCN(C)C)c1ccc(N(CCCN(C)C)C(=O)CCCCCCCCCCCCCCC)cc1`, the survivor count reads like this: under setting [1], 3 of 6; under setting [2], 3 of 6; under setting [4], 1 of 6; (T/C endpoint: mean survival time, dose: 100.0 mg/kg/injection, schedule: Q01DX009 (ip), vehicle: saline with Tween-80) 2 of 6; under setting [3], 0 of 6; under setting [5], 0 of 6.
For the compound `C/C(=C\Cl)COC(C)(C)C`, the survivor count (T/C endpoint: mean survival time, dose: 400.0 mg/kg/injection, schedule: Q04DX003 (ip), vehicle: acetone) is recorded as 0 of 6.
Turning to `Cc1cc(N(CC(C)Br)CC(C)Br)ccc1N=Nc1ccccc1C(=O)O` (centres undefined), the T/C by setting is: (T/C endpoint: mean survival time, dose: 12.5 mg/kg/injection, schedule: Q01DX009 (ip), vehicle: Klucel (hydroxypropylcellulose) (HPC)) 128 % of control; under setting [1], 129, 138, 139 % of control. Further, the survivor count under setting [2] is recorded as 5 of 6; the survivor count (T/C endpoint: mean survival time, dose: 50.0 mg/kg/injection, schedule: Q01DX009 (ip), vehicle: Klucel (hydroxypropylcellulose) (HPC)) is reported as 0 of 3; the survivor count (T/C endpoint: mean survival time, dose: 100.0 mg/kg/injection, schedule: Q01DX009 (ip), vehicle: Klucel (hydroxypropylcellulose) (HPC)) is 0 of 3; the survivor count (T/C endpoint: mean survival time, dose: 200.0 mg/kg/injection, schedule: Q01DX009 (ip), vehicle: Klucel (hydroxypropylcellulose) (HPC)) is reported as 0 of 3.
Take `Cc1c2ccccc2c(CN(C)CC(=O)O)c2ccccc12`: the survivor count under setting [7] is reported as 3 of 6.
For the compound `CNCCN1CCC(Cc2ccccc2)CC1`, the survivor count (T/C endpoint: mean survival time, dose: 400.0 mg/kg/injection, schedule: Q01DX009 (ip), vehicle: saline) is listed as 0 of 6.
For the compound `CC1C(=O)OC2C1CCC1(C)C=CC(=O)C(C)C21` (centres undefined), the survivor count runs as follows: (T/C endpoint: mean survival time, dose: 100.0 mg/kg/injection, schedule: Q04DX002 (ip), vehicle: saline with Tween-80) 0 of 3; (T/C endpoint: mean survival time, dose: 200.0 mg/kg/injection, schedule: Q04DX002 (ip), vehicle: saline with Tween-80) 0 of 3; under setting [6], 0 of 3 (2×).
Turning to `CCOC(=O)Nc1cc2c(c(N)n1)N=C(CCc1ccccc1)CN2`, the T/C under setting [8] was 129 % of control. Further, the survivor count under setting [9] is reported as 1 of 5.
Take `CN1C(=O)NC(c2cccc(N(CCCl)CCCl)c2)C1=O` (centres undefined): the T/C reads like this: (T/C endpoint: mean survival time, dose: 50.0 mg/kg/injection, schedule: Q01DX001 (ip), vehicle: Klucel (hydroxypropylcellulose) (HPC)) 138 % of control; under setting [8], 129 and 134 % of control. Further, the survivor count was 6 of 6 (T/C endpoint: mean survival time, dose: 200.0 mg/kg/injection, schedule: Q01DX001 (ip), vehicle: Klucel (hydroxypropylcellulose) (HPC)) and 5 of 6 under setting [9].
As for `O=CNc1cccc2ccc3cc4ccccc4cc3c12`, the survivor count under setting [7] is listed as 2 of 6.
